Experimental data taken from article PMC10085679.
For part of these data: Weaker means in comparison with the reference protein, sequence or condition of that experiment. For part of these data: Protein sequences can lack the tags named with them.

Chains of the proteins cited; added tags and fusions are not shown. A line that says so, or that is headed by a name, gives the form on record, which may keep a tag or linker.
IFI16FL (Homo sapiens), one chain, as listed by the source: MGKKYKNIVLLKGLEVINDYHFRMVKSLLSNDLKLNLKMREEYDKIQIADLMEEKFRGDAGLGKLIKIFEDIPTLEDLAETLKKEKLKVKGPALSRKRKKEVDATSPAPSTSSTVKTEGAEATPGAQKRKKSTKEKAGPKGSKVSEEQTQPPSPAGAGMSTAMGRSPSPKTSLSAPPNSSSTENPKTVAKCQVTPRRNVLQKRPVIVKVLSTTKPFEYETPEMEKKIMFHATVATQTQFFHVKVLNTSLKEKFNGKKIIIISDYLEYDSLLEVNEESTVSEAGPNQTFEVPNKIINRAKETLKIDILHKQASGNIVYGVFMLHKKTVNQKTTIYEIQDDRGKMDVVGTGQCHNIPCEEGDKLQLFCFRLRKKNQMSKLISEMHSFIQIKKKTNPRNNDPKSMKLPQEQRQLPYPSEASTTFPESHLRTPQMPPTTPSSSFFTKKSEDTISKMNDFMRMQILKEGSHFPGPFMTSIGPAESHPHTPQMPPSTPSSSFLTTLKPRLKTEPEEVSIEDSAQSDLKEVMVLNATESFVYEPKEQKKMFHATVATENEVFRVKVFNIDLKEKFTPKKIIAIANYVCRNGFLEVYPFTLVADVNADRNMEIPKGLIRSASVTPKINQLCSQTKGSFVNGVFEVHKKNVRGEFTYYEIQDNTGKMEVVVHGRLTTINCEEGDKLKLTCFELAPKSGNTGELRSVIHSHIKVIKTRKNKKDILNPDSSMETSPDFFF

How the values were obtained:
AIM2FL (Homo sapiens) [1] = target: T1, AIM2FL (Homo sapiens) (UniProt O14862); test: FP; conditions: 160 mM KCl (60 mM KCl for IFI16HinAB), pH and temperature not given in the available text, recombinant protein, residues 1-343, label: FAM
T1 sequence (looked up): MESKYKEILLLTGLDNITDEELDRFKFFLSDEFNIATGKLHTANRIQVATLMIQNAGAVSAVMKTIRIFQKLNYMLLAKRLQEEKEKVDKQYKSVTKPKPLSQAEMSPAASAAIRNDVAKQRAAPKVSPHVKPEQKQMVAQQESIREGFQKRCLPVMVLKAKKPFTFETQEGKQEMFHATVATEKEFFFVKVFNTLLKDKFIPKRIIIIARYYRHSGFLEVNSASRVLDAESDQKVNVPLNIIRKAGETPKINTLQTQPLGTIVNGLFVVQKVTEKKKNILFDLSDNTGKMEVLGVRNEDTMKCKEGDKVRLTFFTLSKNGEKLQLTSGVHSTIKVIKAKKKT

IFI16FL (Homo sapiens) [2] = test: EMSA; conditions: recombinant protein; residues 1-729; protein details: C-terminal His6; label: FAM; single-stranded DNA
AIM2FL (Homo sapiens) [3] = target: T1, AIM2FL (Homo sapiens); test: fluorescence anisotropy; conditions: 160 mM KCl, 60 mM KCl for IFI16HinAB, FAM probe 3-6 nM (FA) or 20 nM (EMSA), recombinant protein, residues 1-343, label: FAM
AIM2FL (Homo sapiens) [4] = target: T1, AIM2FL (Homo sapiens); test: competition with a labelled probe; conditions: against 60-bp FAM-dsDNA; recombinant protein; residues 1-343; label: FAM (unlabeled as competitor)
IFI16FL (Homo sapiens) [5] = test: FP; conditions: 160 mM KCl (60 mM KCl for IFI16HinAB); pH and temperature not given in the available text; recombinant protein; residues 1-729; protein details: C-terminal …; label: FAM (unlabeled as competitor)

AAAGAAAGAAAGAAAGAAAGAAAG [24-base ssDNA_A]
binding result (AIM2FL (Homo sapiens) [1]; single-stranded DNA): binds more weakly | binding result (IFI16FL (Homo sapiens) [2]): binds more weakly | Kd (AIM2FL (Homo sapiens) [3]; single-stranded DNA): > 500 nM

AAAGAAAGAAAGAAAGAAAGAAAG [24-base ssRNA_A]
binding result (AIM2FL (Homo sapiens) [1]): binds more weakly

AAAGAAAGAAAGAAAGAAAGAAAGAAAGAAAGAAAGAAAGAAAGAAAGAAAGAAAGAAAG [60-base ssRNA_A]
binding result (AIM2FL (Homo sapiens) [4]): binds more weakly

TAAGACACGATGCGATAAAATCTG / CAGAUUUUAUCGCAUCGUGUCUUA [24-bp DNA:RNA hybrid]
binding result (AIM2FL (Homo sapiens) [1]; DNA:RNA hybrid): binds more weakly | Kd (AIM2FL (Homo sapiens) [3]; DNA:RNA hybrid): > 500 nM

TAAGACACGATGCGATAAAATCTGTTTGTAAAATTTATTAAGGGTACAAATTGCCCTAGC (double strand) [60-bp dsDNA]
binding result (IFI16FL (Homo sapiens) [5]): binds

TTTCTTTCTTTCTTTCTTTCTTTC [24-base ssDNA_T]
binding result (AIM2FL (Homo sapiens) [1]; single-stranded DNA): binds more weakly | binding result (IFI16FL (Homo sapiens) [2]): binds more weakly

UAAGACACGAUGCGAUAAAAUCUG / CAGAUUUUAUCGCAUCGUGUCUUA [24-bp dsRNA]
binding result (AIM2FL (Homo sapiens) [1]): binds more weakly

UUUCUUUCUUUCUUUCUUUCUUUC [24-base ssRNA_U]
binding result (AIM2FL (Homo sapiens) [1]): binds more weakly
